This note sets out measurements from PMC9860117, “The nematode α-catenin ortholog, HMP1, has an extended α-helix when bound to actin filaments” (The Journal of Biological Chemistry, 2022).

No constants are given. Whether binding was seen depends on the method and setting. Some binding calls cover weakened binding; strength is not graded here.

Test [1] deals with full-length zebrafish (Danio rerio) α-catenin (Danio rerio) (UniProt Q9PVF8). In words: SEC-MALS; Superdex S200 10/300 Gl, 20 mM Tris pH 8, 150 mM NaCl, 0.2 mM TCEP, 0.5 ml/min; monomer peak fractions pooled from a previous SEC; both purified.
Test [2] has as its target T1, full-length HMP1/α-catenin (Caenorhabditis elegans α-catenin ortholog) (C. elegans), P90947.
T1 chain: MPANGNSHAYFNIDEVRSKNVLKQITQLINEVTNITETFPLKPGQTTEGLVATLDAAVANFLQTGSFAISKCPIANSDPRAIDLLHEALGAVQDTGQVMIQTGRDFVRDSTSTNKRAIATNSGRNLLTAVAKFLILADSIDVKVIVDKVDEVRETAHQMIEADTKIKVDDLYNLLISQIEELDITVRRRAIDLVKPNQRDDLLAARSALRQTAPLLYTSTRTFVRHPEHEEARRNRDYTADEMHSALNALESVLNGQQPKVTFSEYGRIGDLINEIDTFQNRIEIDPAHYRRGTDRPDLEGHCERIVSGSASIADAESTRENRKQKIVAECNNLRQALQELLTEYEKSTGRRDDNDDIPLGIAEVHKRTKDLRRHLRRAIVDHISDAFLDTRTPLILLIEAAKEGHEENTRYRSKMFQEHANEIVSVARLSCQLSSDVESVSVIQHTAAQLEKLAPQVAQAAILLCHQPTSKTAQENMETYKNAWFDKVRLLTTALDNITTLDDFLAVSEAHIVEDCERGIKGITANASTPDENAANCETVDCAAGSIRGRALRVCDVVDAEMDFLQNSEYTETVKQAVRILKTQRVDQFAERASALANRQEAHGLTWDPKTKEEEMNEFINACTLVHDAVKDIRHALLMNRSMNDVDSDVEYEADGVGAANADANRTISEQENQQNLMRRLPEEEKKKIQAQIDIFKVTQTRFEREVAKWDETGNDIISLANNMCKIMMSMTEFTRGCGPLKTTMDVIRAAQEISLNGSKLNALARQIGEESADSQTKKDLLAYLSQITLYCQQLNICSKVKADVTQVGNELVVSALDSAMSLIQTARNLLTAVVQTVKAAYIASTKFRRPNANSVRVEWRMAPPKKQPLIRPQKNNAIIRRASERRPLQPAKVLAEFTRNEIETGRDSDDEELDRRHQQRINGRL
The description is as above. The following applies: remark: other sources report otherwise.

B1: full-length zebrafish (Danio rerio) α-catenin (protein, UniProt Q9PVF8 1-907)
chain: MTSINTANINFKWDPKSLEIRTLAVERLLEPLVTQVTTLVNSSNKGPSNKKKGRSKKAHVLAASVDEATQNFLEKGEKIAKESQFLKEELTAAVEDVRKQGESMKMASGEFAEDPCSSVKRGNMVRAARALLSAVTHLLVLADMADVYQLLLQLKLVEENLMKVRNAGTEQDLGIQYKALKPEVDKLNMMAAKRQQELKDVHHKDQMAAARGVLQRNVPMLYTASRACLQHPDVAAYKANRDLIYKQLQHAVSGISNAAQATSSEDSSFSQTAGGGELAYALNNFDKQIIVDPLSFSEERFRPSLEERLESIISGAALMADSSCTRDDRRERIVAECNSVRQALQDLLSEYMGNAGRKEKSDALNTAIDRMTKKTRDLRRQLRKAVMDHVSDSFLETNVPLLVLIEAAKNGNEKEVKEYAQVFREHANKLIEVANLACSISNNEEGVKLVRMAASQLETLCPQVINAALALAAKPNSKVAQDNMDLFKDQWEKQVRVLTDAVDDITSIDDFLCVSENHILEDVNKCVIALQEKDVDGLDRTAGAIRGRAARVVHVVTSEMDNYMPGVYTEKVLEATKLLTETVMPRFTEQVEAAVEALSANNGQPVDENEFIDASRLVYDGVRDIRKAVLMIRTPEELDDSDFETEDFDSRSRTSVQTEDDQLIAGQSARAIMAQLPQEQKAKIAEQVASFQEEKSKLDAEVSKWDDSGNDIIVLAKQMCMIMMEMTDFTRGKGPLKNTSDVISAAKKIAEAGSRMDKLGRAIADQCPDSACKQDLLAYLQRIALFCHQLNICSKVKAEVQNLGGELVVSGLDSAMSLIQAAKNLMNSVVSTVKASYVASTKYQKSQDMQSLNMPAISWKMKAPEKKPLVKREKLDDGQTNKVKRSSQKKHINPVQALSEFKAMDSI
In the case of B1, the binding entry in test [1] is listed as “binds weakly”.

B2: full-length HMP1/α-catenin (Caenorhabditis elegans α-catenin ortholog), P90947 1-927 (protein)
chain: T1 chain
Take B2: in test [2], the binding result was “no binding”.
